Results are given in words; binding and its absence hold for the method and conditions named. In cells and extracts the contact can be indirect. Some entries that bind do so weakly or less than the wild type. Where a sequence is shown, tags or fusion partners need not be part of it.
Legend:
[1] = target: T1, GFP tagged α4 integrin (Integrin alpha4 EGFP-N3) (UniProt P13612); assay: co-IP; GFP-TRAP beads on whole cell lysates of confluent NEB-1 keratinocyte monolayers transiently expressing GFP, α4-GFP or α9-GFP for 48 h, treated with DMSO or BOP for 1 h; Western blot for paxillin, Importin 7 and GFP
T1 sequence: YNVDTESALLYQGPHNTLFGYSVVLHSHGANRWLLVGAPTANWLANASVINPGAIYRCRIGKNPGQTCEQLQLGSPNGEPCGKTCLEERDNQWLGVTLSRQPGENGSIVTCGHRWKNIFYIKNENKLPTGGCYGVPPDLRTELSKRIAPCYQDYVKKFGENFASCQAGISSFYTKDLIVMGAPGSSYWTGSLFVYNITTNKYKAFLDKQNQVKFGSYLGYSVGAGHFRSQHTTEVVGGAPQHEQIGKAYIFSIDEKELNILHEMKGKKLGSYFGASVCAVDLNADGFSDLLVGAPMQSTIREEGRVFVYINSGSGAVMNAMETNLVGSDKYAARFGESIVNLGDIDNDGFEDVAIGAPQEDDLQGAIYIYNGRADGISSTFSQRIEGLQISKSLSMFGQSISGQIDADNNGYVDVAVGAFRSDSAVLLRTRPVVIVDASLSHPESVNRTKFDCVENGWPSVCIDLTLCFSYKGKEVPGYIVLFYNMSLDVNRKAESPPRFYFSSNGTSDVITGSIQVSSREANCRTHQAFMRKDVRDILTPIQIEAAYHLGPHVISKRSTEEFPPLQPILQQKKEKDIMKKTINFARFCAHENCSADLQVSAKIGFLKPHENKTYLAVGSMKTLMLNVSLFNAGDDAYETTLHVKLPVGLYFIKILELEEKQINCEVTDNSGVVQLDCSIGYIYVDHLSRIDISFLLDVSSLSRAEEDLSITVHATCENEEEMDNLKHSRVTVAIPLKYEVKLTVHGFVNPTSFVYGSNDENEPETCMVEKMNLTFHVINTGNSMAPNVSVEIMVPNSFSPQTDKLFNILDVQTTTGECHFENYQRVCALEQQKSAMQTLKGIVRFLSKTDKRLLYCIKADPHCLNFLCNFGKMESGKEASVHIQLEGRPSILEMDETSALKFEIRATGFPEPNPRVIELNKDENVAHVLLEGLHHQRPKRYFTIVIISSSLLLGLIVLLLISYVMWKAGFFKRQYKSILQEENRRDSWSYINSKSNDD

The chains behind the UniProt entries cited, without tags or fusion partners.
UniProt P49023: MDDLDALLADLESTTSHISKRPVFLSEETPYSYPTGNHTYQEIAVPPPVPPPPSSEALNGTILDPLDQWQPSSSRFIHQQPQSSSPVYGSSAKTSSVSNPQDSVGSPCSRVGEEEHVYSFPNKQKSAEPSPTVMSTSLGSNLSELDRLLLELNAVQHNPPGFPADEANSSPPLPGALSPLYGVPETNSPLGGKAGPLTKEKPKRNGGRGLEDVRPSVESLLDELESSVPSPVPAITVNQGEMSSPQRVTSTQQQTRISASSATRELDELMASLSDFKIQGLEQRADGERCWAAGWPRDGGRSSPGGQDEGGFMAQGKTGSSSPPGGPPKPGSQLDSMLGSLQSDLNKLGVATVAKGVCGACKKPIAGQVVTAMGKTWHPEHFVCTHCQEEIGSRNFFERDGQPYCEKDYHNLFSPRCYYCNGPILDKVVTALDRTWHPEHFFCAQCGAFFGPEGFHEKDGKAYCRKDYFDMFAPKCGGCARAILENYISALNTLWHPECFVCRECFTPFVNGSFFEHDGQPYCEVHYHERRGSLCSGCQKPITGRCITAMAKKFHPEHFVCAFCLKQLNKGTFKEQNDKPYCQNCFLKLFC

[2] = target: T2, GFP tagged α9 integrin (Integrin alpha9 EGFP-N3) (human) (UniProt Q13797); assay: as above
T2 sequence: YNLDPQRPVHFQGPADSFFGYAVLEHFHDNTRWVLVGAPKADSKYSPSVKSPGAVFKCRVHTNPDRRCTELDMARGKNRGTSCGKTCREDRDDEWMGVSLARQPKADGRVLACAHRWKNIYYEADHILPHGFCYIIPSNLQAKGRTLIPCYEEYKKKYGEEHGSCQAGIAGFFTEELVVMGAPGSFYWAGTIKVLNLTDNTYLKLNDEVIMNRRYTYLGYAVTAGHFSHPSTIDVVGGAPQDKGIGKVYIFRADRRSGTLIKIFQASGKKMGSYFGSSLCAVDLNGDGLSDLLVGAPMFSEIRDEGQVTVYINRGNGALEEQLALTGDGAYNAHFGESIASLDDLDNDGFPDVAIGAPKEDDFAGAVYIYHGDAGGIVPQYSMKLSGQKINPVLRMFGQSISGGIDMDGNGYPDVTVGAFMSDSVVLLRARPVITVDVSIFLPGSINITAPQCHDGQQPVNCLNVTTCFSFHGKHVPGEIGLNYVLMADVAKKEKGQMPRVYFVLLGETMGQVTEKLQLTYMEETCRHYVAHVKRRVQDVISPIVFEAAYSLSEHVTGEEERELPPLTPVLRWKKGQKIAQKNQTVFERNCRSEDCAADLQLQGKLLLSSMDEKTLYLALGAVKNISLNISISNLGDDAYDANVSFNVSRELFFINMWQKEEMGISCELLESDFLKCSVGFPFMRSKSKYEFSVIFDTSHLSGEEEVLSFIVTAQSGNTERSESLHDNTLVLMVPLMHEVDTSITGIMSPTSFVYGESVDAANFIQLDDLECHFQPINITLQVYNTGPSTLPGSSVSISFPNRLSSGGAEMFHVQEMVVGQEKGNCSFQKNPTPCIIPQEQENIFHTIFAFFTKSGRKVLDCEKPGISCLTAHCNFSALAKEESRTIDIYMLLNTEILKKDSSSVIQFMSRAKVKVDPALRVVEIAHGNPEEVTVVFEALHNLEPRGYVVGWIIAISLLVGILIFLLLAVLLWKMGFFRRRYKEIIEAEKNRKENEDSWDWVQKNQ

Question: paxillin (from UniProt P49023 1-591) was tested. Which binding [1] did it give?
Answer: binds

Question: What about the binding [2] of the same substance?
Answer: binds

Reference: article PMC8655878
